{"source": "paper doi:10.1101/2025.06.21.660898", "binders": {"B1": {"name": "PDCD4 (protein, UniProt Q53EL6 1-469)", "chain": "MDVENEQILNVNPADPDNLSDSLFSGDEENAGTEEIKNEINGNWISASSINEARINAKAKRRLRKNSSRDSGRGDSVSDSGSDALRSGLTVPTSPKGRLLDRRSRSGKGRGLPKKGGAGGKGVWGTPGQVYDVEEVDVKDPNYDDDQENCVYETVVLPLDERAFEKTLTPIIQEYFEHGDTNEVAEMLRDLNLGEMKSGVPVLAVSLALEGKASHREMTSKLLSDLCGTVMSTTDVEKSFDKLLKDLPELALDTPRAPQLVGQFIARAVGDGILCNTYIDSYKGTVDCVQARAALDKATVLLSMSKGGKRKDSVWGSGGGQQSVNHLVKEIDMLLKEYLLSGDISEAEHCLKELEVPHFHHELVYEAIIMVLESTGESTFKMILDLLKSLWKSSTITVDQMKRGYERIYNEIPDINLDVPHSYSVLERFVEECFQAGIISKQLRDLCPSRGRKRFVSEGDGGRLKPESY"}}, "target": "T1, ZCCHC4-FH (HA and Flag tagged full-length ZCCHC4), stably expressed in HeLa cells (human) (UniProt Q9H5U6)", "T1 sequence": "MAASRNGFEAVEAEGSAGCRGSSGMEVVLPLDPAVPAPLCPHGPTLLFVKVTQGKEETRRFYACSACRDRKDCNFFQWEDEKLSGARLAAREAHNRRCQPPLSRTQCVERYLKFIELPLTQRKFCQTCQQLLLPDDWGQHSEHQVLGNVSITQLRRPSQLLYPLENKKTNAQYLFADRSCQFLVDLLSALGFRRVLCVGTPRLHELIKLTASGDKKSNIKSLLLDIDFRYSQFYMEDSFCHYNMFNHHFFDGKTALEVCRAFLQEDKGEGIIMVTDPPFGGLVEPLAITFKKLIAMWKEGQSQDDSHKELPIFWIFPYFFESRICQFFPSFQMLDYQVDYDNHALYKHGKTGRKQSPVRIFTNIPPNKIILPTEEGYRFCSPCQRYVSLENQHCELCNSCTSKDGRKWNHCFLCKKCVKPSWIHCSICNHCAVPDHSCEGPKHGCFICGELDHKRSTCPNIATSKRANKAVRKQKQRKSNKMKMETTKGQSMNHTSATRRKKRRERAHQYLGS", "assay": "affinity purification with mass spectrometry", "note": "These are yes or no findings as the source states them, for the method shown. Binding seen in cells or lysates may run through a third protein. Here binding means that the protein was enriched with, or labelled near, the bait; the list need not be complete. Sequences can lack the tags named with a protein.", "data": [{"binder": "B1", "values": [{"measurement": "binding", "value": "binds"}]}]}
